From PubChem BioAssay AID2685 (National Center for Advancing Translational Sciences (NCATS), 2010)
Some of the results follow. Shown are side measurements of this screen, not its main read-out; they come without a call. Most of these compounds were active or inconclusive in the main read-out, so they are no random draw. Potencies come from curve fits of mixed quality, noted in brackets.

Assay: qHTS Assay for Lipid Storage Modulators in Drosophila S3 Cells;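 for cell number change: cells counted by Cell Tracker Red CMTPX staining in the red channel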
Settings: BODIPY lipid droplet fluorescence, 18-24 h; for cell number change: measured here: cell count max response, cells fed with added oleic acid
Procedure, shortened: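 Drosophila S3 cells loaded with oleic acid (400 uM, as added) and compounds at several concentrations; lipid droplets imaged by 488-nm laser-scanning cytometry, 500–530 nm intensity and object ratio to cell channel. Percent activity normalized to 20 uM Triacsin C.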

[1] = measured here: cell number channel AC50, cells fed with added oleic acid
[2] = measured here: lipid fluorescence (Fed channel) AC50, cells fed with added oleic acid

Row | Structure (SMILES) | cell number change | AC50 [1] | AC50 [2]
1 | CC(C)N1CCc2c(sc(NC(=O)c3ccc4ccccc4c3)c2C(N)=O)C1 | -28.2% |  | 
2 | COc1ccc(N=C2C(=Nc3ccc(OC)cc3)N(c3ccc(OC)cc3)C(=S)N2C(=O)c2ccc(OC)cc2)cc1 |  | 0.461 µM [falling, full curve] | 0.517 µM [falling, full curve]
3 | COc1ccccc1NC(=O)CN1CCC(n2nnc3cc(F)ccc32)CC1 | -5.21% |  | 6.51 µM [rising, single point]
4 | O=C(NCCc1ccc(Cl)cc1)C1COc2ccccc2O1 (stereo not drawn) | 20.2% |  | 29.1 µM [falling, single point]
5 | COc1cccc(-n2nnc3c(=O)n(CC(=O)Nc4ccccc4C)cnc32)c1 | 30.2% | 1.3 µM [rising, partial curve] | 0.146 µM [rising, full curve]
6 | COc1ccc(NC(=O)CCn2ccnc2)c(OC)c1 |  |  | 5.17 µM [falling, single point]
7 | COC(=O)CC1COc2ccccc2N1C(=O)c1ccc(Br)cc1 (stereo not drawn) |  |  | 6.51 µM [falling, single point]
8 | Cc1ccc(OCCCC(=O)Nc2ccc(Cl)c(S(=O)(=O)N3CCOCC3)c2)cc1 | -6.39% |  | 29.1 µM [falling, partial curve, poor fit]
9 | Cc1cc(=O)[nH]c(SCC(=O)Nc2ccccc2[N+](=O)[O-])n1 | 30.4% | 0.92 µM [rising, full curve, poor fit] | 2.06 µM [rising, full curve, poor fit]
10 | CNS(=O)(=O)c1cc(C(=O)NCc2ccco2)ccc1Cl | 46% | 29.1 µM [rising, single point] | 
11 | CCN1C(=O)CC(N2CCC(C(=O)OC)CC2)C1=O (stereo not drawn) |  | 0.0731 µM [falling, full curve] | 
12 | COc1cccc(OC)c1C(=O)Nc1ccc2c(c1)CCCN2S(=O)(=O)c1ccc(C)cc1 | -12.2% |  | 23.1 µM [rising, single point]
13 | O=C(Cc1cccs1)Nc1cccnc1 | 59.5% | 20.6 µM [rising, single point] | 0.116 µM [falling, full curve, poor fit]
14 | COc1ccccc1CCNC(C)CCc1ccc(O)cc1 (stereo not drawn) | -21.8% |  | 0.58 µM [rising, single point]
15 | O=C(c1cc2c(ccc3ccccc32)oc1=O)N1CCCC1 | -4.58% |  | 2.06 µM [falling, partial curve]
16 | CC(C)(C)c1ccc(Cn2nc(CC(=O)O)c3ccccc3c2=O)cc1 | 108% |  | 
17 | O=C(Cn1c(=O)c(=O)n(Cc2ccccc2)c2ccc(Cl)cc21)Nc1ccc(F)cc1F | -24.4% |  | 0.1 µM [falling, full curve, poor fit]
18 | CCCCCCC(O)(c1ccccc1)C(CN1CCOCC1)c1ccccc1 (stereo not drawn) | -1.41% |  | 29.1 µM [falling, single point]
19 | CCn1c(Cc2ccccc2)nnc1SCC(=O)Nc1cc(C)on1 | -4.25% |  | 1.64 µM [falling, partial curve, poor fit]

Row | Structure (SMILES) | cell number change | AC50 [1] | AC50 [2]
20 | NC(=O)CSc1nnc(-c2ccc(S(=O)(=O)N3CCCCC3)cc2)n1-c1ccccc1 | 107% | 23.1 µM [rising, single point] | 29.1 µM [rising, single point]
21 | Cc1cccc(NC(=O)Cn2c(=O)oc3ccccc32)c1 | 1.04% |  | 
22 | COc1ccc(C2C(C#N)=C(N)Nc3nc4ccccc4n32)cc1 (stereo not drawn) | -16.7% | 0.366 µM [rising, single point] | 0.206 µM [rising, full curve, poor fit]
23 | CSc1nc2c(c(=O)[nH]1)C(c1ccccc1)C1=C(CC(C)(C)CC1=O)N2 (stereo not drawn) | -22.5% | 3.66 µM [falling, single point] | 
24 | CC1(c2nnc(-c3ccc(Cl)cc3)o2)CC(c2c(Cl)cccc2Cl)=NO1 (stereo not drawn) | 3.4% |  | 
25 | Cc1cccc(-n2ncc(C(=O)NC3CCCC3)c2C2CCN(C(=O)OC(C)(C)C)CC2)c1 | 68.4% | 16.4 µM [rising, single point] | 
26 | CCOc1ccc(NC(=O)c2ccc(NC(=O)Cc3n[nH]c(=O)c4ccccc34)cc2)cc1 | 24.3% |  | 5.17 µM [rising, partial curve]
27 | CCCCN1CCNC[C@@H]1c1ccccc1 | -57.4% | 29.1 µM [falling, single point] | 32.6 µM [falling, single point]
28 | CC(=O)C1=C(C)NC(SCC(=O)c2ccc(Cl)cc2)=C(C#N)C1CC(C)C (stereo not drawn) | 19.7% |  | 
29 | COc1ccccc1-n1c(SC)nc2c(sc(=S)n2-c2ccccc2)c1=O | -6.94% |  | 29.1 µM [rising, single point]
30 | NNC(=O)COc1ncn(-c2ccccc2)n1 | -51% | 16.4 µM [falling, single point] | 2.31 µM [falling, full curve]
31 | CCNC(=O)CC1C(=O)N(c2ccc(F)cc2)C(=O)N1CCc1ccc(OC)cc1 (stereo not drawn) | 45.7% | 20.6 µM [rising, single point] | 
32 | COC(=O)CC1C(=O)NCCN1C(=O)CSc1nnc(Nc2ccc(OC)cc2)s1 (stereo not drawn) | 14.6% |  | 
33 | COc1ccc(-c2nc3cc(C)ccn3c2NC(=O)c2ccccc2OC)cc1 | -31.3% | 29.1 µM [falling, single point] | 29.1 µM [falling, single point]
34 | O=C(CSc1nc2ccccc2nc1N1CCCCC1)N1CCN(c2ccccc2)CC1 | -13.3% |  | 29.1 µM [falling, single point]
35 | Cc1cc(C)c2nc(NNC(=O)c3cc(-c4cccs4)nc4ccccc34)sc2c1 | -11.9% |  | 0.651 µM [rising, full curve]
36 | Cc1ccccc1C(=O)N1CCN(c2ccc(NC(=O)c3cccc(OC(C)C)c3)cc2)CC1 |  |  | 0.651 µM [rising, full curve]
37 | O=C(CSc1nc(-c2ccco2)cc(C(F)(F)F)n1)NC1CCCC1 | 15.6% |  | 7.31 µM [rising, partial curve]
38 | Cc1ccc(NC(=O)Cn2nnc(C(=O)NCc3ccco3)c2N)c(C)c1 | 23.3% |  | 

8 consecutive entries out of the list so far:
Row | Structure (SMILES) | cell number change | AC50 [1] | AC50 [2]
23 | CSc1nc2c(c(=O)[nH]1)C(c1ccccc1)C1=C(CC(C)(C)CC1=O)N2 (stereo not drawn) | -22.5% | 3.66 µM [falling, single point] | 
24 | CC1(c2nnc(-c3ccc(Cl)cc3)o2)CC(c2c(Cl)cccc2Cl)=NO1 (stereo not drawn) | 3.4% |  | 
25 | Cc1cccc(-n2ncc(C(=O)NC3CCCC3)c2C2CCN(C(=O)OC(C)(C)C)CC2)c1 | 68.4% | 16.4 µM [rising, single point] | 
26 | CCOc1ccc(NC(=O)c2ccc(NC(=O)Cc3n[nH]c(=O)c4ccccc34)cc2)cc1 | 24.3% |  | 5.17 µM [rising, partial curve]
27 | CCCCN1CCNC[C@@H]1c1ccccc1 | -57.4% | 29.1 µM [falling, single point] | 32.6 µM [falling, single point]
28 | CC(=O)C1=C(C)NC(SCC(=O)c2ccc(Cl)cc2)=C(C#N)C1CC(C)C (stereo not drawn) | 19.7% |  | 
29 | COc1ccccc1-n1c(SC)nc2c(sc(=S)n2-c2ccccc2)c1=O | -6.94% |  | 29.1 µM [rising, single point]
30 | NNC(=O)COc1ncn(-c2ccccc2)n1 | -51% | 16.4 µM [falling, single point] | 2.31 µM [falling, full curve]
